The assay deals with Chandipura virus matrix protein, full length, after TEV cleavage of GFP_CHPV_M (Chandipura virus) (UniProt Q9WH76). As to the kind of experiment: SEC; analytical size exclusion on a self-packed Superdex 200 column (about 12 mL bed), buffer E (20 mM HEPES pH 7.5, 200 mM NaCl), 4-6 °C, calibrated with Bio-Rad gel filtration standards; elution around 10.25 mL between Ovalbumin (44 kDa) and Myoglobin (17 kDa); both purified. A general note: In gel filtration, larger molecules generally elute earlier.

These results are taken from PMC12767760.

No constants are given. Whether binding was seen depends on the method and setting.

For the substance “Chandipura virus matrix protein, full length, after TEV cleavage of GFP_CHPV_M (from UniProt Q9WH76 1-229)”, the binding result is “no binding”.
